These are yes or no findings as the source states them, for the method shown. In cells and extracts the contact can be indirect. A yes stands for co-enrichment or nearness to the bait. Other partners may have been found. For some assays here: A no says only that the protein was not detected with the bait.
B1: CulE (protein, UniProt Q54XF7 1-750)
chain: MSDQITVDELWAECEQTFEDLFLNLKKGLSRKRYMEIYTKIYNYCSSANEKALIDFYIPKVKVLVAQKAVEIMSRSESYPNDALLLFFRNQWNEWKMSSNVLKNLLSPVNKIHSSDKKTTSSSANQNESVVYSDTLNSWRETAFNPLKNKLSVSLLQIIKNDRTGFSTNLQVLSDSLECYVQLGPEKNKLEIYQSCFEQQFLQETETFYKAESADFIEKNGVCEYMRHVYNRIEQETNRVNQYMPISTLEKLTKILNNVLISNYKEQFASKFLDILIEDKSSDLVMMYSLLSRVNHLTPLKNIFSDFIKSEGLKEIESNLKEAQEKPQVLISILLKIYSRFNIMIKECYGNDTDFTTAMDKSFSILVNENPASYDPKKKESNIPVVLSKFCDQILRKGPHHISDEAELEKKLTEAVCLFKYLPDKDIFMLNYQKMLSKRLVEDLSASEDAETLMINKLKNYQGFDYCTKLTRMITDMRLCKDININFQNHLNEKSLTLPYQFNFYVLTNGSWTLTNKQTATPFKPPSEMLSSITYFESFYKKSYQGRVLTFLYDFSRADVDSRQAKGKIYKLTTTAYQMAILLMFNGADKITRFLINDTIGLDETSIRLPLLALIKTGIIECSEPSFKNWNNDTEFTVNSKFSSKKMKVSCNIAVQIGETKQSEGQQTVSEQEIEKERFFKLQAAIVRIMKSKKTMTHNDLTVETTTQVSKWFTPKITAIKKAIEYLIDQEYIRRTTDDNPSARKYEYMA

Sequences of proteins named here, by UniProt entry; tags and fusion partners are left off. A change or cut given only in a name is not applied to a line headed by its entry.
UniProt Q54DE4: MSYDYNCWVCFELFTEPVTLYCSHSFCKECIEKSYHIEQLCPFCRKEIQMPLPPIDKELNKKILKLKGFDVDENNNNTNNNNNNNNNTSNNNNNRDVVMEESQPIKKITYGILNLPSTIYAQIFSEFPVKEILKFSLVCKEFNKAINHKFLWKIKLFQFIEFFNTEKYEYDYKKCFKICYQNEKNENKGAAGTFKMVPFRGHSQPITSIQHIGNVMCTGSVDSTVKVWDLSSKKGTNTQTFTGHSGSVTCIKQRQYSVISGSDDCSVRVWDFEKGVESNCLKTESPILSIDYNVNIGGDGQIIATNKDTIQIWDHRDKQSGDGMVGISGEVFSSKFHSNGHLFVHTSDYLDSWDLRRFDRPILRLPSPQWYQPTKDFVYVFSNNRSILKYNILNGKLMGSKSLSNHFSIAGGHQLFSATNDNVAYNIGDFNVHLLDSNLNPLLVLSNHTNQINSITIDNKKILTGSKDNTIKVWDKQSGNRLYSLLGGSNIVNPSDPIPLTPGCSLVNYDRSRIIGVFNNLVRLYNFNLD
UniProt P52285: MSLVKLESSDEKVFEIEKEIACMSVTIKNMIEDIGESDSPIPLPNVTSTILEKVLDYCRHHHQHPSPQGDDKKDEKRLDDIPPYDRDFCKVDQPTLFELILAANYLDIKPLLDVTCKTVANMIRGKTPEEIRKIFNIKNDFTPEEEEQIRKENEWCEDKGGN

Experiments:
[1] = target: FbxwD-FLAG3 (Dictyostelium discoideum) (UniProt Q54DE4); assay: affinity purification with mass spectrometry; anti-FLAG mAb M2 magnetic beads, 1 h at 4°C, from vegetative stage cells of endogenously tagged FbxwD strains lysed in 250 mM NaCl, 50 mM Tris-HCl pH 8.0, 0.2% NP-40; eluted at high pH, nLC MS/MS; compared with untagged Ax3; FLAG3 and FLAG3UBA2 strains treated as biological replicates
[2] = target: FbxwD-FLAG3 (Dictyostelium discoideum) (UniProt Q54DE4); assay: affinity purification with mass spectrometry; as a1 but from slug cells
[3] = target: FLAG3Vwa2 (Dictyostelium discoideum); assay: affinity purification with mass spectrometry; anti-FLAG co-IPs with overexpressed FLAG3Vwa2, 0.2% NP-40 lysate; stage of the cells not given
[4] = target: Vwa2-FLAG3 (Dictyostelium discoideum); assay: affinity purification with mass spectrometry; anti-FLAG co-IPs from strains expressing native levels of Vwa1-FLAG3 or Vwa2-FLAG3

Row | Molecule | binding [1] | binding [2] | binding [3] | binding [4]
1 | Skp1 (from UniProt P52285) | binds | binds | – | –
2 | B1 | binds | – | binds | no binding
